Results are given in words; binding and its absence hold for the method and conditions named. Binding seen in cells or lysates may run through a third protein. Some results given as binding are weak or reduced against the parent protein; the word gives no strength.

The target of assay [1] is T1, mSin3a (endogenous, murine Va15 cells) (UniProt Q60520).
T1 sequence (looked up): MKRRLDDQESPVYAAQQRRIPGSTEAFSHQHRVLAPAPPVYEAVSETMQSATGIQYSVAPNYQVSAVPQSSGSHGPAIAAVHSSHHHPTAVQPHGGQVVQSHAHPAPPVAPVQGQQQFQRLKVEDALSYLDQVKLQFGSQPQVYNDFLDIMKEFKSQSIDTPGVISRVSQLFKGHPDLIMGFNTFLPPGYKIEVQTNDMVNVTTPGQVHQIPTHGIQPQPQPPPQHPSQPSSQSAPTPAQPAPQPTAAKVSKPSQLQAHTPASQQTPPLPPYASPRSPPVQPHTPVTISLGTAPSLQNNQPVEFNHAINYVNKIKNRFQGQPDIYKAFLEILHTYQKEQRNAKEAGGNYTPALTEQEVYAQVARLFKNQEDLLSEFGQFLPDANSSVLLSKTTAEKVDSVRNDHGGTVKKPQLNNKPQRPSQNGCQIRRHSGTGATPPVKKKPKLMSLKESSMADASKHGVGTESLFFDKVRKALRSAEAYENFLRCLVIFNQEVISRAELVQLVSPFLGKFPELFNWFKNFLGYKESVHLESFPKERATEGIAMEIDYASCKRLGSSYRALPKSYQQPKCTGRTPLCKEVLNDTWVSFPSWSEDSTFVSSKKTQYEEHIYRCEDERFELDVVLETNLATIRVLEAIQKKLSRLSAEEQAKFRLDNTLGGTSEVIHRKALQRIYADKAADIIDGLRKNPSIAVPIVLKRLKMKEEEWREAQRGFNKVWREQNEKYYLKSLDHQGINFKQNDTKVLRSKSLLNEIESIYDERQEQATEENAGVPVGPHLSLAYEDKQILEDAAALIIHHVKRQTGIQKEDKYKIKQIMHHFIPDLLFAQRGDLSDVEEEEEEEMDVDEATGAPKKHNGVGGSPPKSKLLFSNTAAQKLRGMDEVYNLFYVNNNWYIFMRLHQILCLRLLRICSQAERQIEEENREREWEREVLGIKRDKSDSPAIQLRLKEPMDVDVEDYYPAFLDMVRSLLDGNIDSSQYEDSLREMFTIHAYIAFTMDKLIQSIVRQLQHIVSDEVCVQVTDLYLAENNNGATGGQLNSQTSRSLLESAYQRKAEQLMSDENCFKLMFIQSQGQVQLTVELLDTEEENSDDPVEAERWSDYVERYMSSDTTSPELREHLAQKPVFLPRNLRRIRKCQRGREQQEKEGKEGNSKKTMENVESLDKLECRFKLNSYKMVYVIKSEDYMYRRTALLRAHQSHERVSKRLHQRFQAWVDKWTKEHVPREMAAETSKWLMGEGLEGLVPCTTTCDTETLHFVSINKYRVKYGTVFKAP
The assay can be described thus: co-immunoprecipitation from Va15 cells at 39 degrees (mutant conformation), p53 western.

The target in assay [2] is T1, mSin3a (endogenous, murine Va15 cells). As to the kind of experiment: co-immunoprecipitation from Va15 cells at 32 degrees (wild type conformation) with Sin3a antisera, p53 western.

Regarding “temperature-sensitive p53 (Valine 135 allele) of murine Va15 cells (from UniProt P02340 1-390)”, the binding entry in assay [1] and in assay [2] was “binds” throughout.

Values taken from patent US7053194.
